This assay deals with DNA binding domain (DBD) of LIG4 (UniProt P49917). In words: NMR titration; competition: 1H-15N HSQC of XRCC4CTR alone or in the presence of DBD of LIG4 and ArtCTR; peak of F333; both purified.

Chains of the proteins cited; added tags and fusions are not shown. Lines headed by an entry give the natural chain unless they say otherwise; changes in a name come on top.
UniProt P49917: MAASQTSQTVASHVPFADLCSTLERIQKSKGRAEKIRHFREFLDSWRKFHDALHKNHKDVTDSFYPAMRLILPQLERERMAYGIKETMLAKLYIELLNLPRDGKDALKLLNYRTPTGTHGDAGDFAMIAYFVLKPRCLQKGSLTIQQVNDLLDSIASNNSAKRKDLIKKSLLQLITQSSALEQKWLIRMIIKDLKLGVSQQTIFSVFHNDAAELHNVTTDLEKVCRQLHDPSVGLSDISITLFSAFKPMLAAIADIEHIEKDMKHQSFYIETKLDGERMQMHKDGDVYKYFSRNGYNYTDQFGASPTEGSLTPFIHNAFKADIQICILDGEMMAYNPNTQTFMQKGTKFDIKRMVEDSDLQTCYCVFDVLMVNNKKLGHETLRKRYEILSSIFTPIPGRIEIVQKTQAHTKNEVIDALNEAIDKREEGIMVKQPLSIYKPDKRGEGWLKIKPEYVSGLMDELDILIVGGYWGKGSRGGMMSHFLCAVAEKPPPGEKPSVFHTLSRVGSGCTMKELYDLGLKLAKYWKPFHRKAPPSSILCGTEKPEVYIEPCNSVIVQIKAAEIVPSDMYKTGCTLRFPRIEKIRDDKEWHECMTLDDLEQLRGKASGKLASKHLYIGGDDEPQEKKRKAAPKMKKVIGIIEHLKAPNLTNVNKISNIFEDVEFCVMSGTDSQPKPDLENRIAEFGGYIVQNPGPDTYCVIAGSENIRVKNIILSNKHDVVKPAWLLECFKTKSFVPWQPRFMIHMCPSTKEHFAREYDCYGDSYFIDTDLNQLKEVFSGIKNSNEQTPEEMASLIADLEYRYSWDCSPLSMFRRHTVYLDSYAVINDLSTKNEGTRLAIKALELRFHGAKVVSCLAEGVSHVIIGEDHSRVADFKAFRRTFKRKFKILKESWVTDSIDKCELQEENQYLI
UniProt Q96SD1: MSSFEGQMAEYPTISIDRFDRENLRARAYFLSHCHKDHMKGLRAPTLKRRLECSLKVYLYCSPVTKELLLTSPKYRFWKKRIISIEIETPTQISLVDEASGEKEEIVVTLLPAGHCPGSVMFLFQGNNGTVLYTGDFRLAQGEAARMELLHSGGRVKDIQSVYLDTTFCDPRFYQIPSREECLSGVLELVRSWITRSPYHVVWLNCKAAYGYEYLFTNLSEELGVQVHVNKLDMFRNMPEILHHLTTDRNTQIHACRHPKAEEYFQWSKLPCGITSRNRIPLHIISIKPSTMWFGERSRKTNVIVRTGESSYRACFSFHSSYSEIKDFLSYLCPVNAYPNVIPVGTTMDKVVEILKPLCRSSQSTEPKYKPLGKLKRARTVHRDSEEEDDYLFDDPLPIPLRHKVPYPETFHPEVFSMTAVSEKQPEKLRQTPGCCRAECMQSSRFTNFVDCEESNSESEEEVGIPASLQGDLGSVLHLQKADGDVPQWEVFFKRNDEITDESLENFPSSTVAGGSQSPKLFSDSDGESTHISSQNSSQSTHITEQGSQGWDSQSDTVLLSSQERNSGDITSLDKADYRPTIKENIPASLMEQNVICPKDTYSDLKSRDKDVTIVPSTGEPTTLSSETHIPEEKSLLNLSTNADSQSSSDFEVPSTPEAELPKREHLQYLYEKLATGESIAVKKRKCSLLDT

No constants are given. Whether binding was seen depends on the method and setting. Binding calls can cover weak binding; strength is not graded here.

As to “Artemis C-terminal region (ArtCTR) (from UniProt Q96SD1) (domain or fragment)”, the binding entry is given as “binds”.

These data come from article doi:10.1101/2023.07.12.548668.
